Laboratory results reported in publication doi:10.1101/2024.02.06.579055.
No constants are given. Whether binding was seen depends on the method and setting. Binding seen in cells or lysates may run through a third protein. Some entries that bind do so weakly or less than the wild type.

Sequences of proteins named here, by UniProt entry; tags and fusion partners are left off. A change or cut given only in a name is not applied to a line headed by its entry.
UniProt P22736, whole entry: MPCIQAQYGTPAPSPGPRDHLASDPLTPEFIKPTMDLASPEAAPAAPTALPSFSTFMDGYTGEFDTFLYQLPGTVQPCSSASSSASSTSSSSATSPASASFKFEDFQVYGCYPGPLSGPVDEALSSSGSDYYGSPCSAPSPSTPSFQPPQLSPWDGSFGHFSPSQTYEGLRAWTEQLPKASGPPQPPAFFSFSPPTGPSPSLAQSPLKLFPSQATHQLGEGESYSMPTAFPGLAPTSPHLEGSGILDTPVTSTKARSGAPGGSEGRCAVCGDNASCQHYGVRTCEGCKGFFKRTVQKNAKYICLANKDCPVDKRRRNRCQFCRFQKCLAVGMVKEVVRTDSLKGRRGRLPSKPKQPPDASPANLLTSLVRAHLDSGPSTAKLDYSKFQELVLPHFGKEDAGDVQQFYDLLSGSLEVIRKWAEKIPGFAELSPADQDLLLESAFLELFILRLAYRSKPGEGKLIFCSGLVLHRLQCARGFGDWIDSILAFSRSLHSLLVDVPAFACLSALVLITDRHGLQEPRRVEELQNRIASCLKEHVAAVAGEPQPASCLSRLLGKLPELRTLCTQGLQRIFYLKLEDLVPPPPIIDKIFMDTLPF
UniProt P43354, whole entry: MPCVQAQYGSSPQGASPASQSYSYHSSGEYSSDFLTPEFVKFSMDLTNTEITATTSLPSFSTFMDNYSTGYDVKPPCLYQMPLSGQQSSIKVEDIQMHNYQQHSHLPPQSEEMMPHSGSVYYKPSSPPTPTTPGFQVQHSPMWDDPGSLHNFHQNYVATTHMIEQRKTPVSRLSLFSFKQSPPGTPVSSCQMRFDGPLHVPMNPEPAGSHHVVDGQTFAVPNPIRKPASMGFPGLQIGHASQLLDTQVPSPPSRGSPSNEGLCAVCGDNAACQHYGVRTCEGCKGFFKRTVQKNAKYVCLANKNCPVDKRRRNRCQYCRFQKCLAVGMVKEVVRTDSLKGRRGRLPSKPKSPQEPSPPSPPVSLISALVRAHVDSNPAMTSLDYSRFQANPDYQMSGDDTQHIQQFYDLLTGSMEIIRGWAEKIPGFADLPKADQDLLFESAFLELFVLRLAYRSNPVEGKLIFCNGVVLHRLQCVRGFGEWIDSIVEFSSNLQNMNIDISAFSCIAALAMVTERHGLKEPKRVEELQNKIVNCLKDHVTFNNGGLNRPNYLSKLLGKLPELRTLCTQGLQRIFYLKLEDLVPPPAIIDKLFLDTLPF
UniProt Q92570, whole entry: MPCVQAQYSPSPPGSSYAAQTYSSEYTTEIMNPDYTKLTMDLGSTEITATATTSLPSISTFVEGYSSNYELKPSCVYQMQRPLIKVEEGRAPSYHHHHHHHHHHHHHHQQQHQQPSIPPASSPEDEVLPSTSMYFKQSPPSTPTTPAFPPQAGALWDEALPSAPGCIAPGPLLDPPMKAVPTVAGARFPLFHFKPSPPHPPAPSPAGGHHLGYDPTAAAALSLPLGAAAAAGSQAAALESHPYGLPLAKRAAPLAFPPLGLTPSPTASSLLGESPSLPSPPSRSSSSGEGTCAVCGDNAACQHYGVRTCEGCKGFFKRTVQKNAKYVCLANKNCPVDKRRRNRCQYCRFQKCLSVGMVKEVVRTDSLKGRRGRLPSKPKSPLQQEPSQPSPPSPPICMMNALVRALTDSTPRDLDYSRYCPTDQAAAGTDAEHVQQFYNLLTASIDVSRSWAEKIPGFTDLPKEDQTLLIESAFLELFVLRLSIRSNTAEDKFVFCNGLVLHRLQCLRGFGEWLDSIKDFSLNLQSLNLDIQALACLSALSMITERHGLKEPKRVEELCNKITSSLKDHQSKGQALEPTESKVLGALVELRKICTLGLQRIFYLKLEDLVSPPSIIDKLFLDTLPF
UniProt P31749, whole entry: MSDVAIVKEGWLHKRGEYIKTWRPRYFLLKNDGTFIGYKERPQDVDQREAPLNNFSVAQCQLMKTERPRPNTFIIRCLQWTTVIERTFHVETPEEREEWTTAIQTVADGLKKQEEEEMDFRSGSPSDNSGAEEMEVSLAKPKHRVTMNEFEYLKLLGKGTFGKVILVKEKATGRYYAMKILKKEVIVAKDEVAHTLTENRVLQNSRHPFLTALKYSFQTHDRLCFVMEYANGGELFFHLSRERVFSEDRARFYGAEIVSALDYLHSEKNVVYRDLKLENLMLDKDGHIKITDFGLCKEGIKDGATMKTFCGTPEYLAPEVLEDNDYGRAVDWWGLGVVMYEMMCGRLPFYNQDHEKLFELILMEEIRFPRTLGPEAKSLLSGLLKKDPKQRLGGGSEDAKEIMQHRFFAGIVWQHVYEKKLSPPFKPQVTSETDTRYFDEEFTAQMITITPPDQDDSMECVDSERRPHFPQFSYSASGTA
UniProt O14744, whole entry: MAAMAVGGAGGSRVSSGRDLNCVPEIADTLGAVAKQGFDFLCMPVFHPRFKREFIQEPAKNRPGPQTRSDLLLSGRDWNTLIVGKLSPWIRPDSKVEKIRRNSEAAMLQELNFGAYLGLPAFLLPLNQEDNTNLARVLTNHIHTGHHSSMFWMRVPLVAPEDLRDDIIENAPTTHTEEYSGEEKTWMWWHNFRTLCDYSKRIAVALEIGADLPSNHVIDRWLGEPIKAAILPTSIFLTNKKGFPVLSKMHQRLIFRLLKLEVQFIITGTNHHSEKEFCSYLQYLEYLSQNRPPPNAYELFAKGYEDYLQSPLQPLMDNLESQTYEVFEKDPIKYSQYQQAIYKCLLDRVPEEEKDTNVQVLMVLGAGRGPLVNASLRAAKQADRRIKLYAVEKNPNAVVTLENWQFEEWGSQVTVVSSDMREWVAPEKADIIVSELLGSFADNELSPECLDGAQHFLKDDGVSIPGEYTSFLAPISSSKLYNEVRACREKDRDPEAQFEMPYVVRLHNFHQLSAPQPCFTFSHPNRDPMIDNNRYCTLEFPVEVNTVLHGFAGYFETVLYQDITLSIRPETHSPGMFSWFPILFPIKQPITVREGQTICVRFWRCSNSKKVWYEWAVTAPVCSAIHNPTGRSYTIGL

How the values were obtained:
Experiment in all cases: co-IP
Myc-Nur77 = Myc-Nur77 (UniProt P22736)
Myc-Nur77-R346K = Myc-Nur77-R346K (UniProt P22736)
Flag-NR4A2 = Flag-NR4A2 (UniProt P43354)
Flag-NR4A3 = Flag-NR4A3 (UniProt Q92570)

Measured: binding

AKT1-HA (from UniProt P31749 1-480) (enzyme)
binds: Myc-Nur77 | Myc-Nur77-R346K

OFP-PRMT5 (from UniProt O14744 1-637) (enzyme)
binds: Myc-Nur77 | Myc-Nur77-R346K | Flag-NR4A2 | Flag-NR4A3
